Reference: PubChem BioAssay AID1259405 (NCATS, 2018)
Test: 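Silenced genes that increase secreted GFP made by CHO cells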 (primary screen). System: Chinese hamster CHO-K1 ovary cells with stable secreted eGFP expression. Knock-down reagent: single siRNA against mouse genes, 0.8 pmol siRNA per well (2 µl of 400 nM stock). Timing: 3 days. Read-out: 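Percent of the per-plate non-targeting control median for intracellular GFP per well by laser scanning cytometry and for cell viability by ATP luminescence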. Scale: GFP, % of control: higher = more GFP per well, higher productivity; viability (ATP), % of control: higher = more viable cells (more ATP). Hit rule: 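Called active when intracellular GFP, relative to negative control, is at or above 120%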.
Shown is a random part of about 50,000 reagents tested. Over the whole deposit, about 4,000 (8%) got an active call. 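Mouse siRNA library applied to hamster cells; one well for each siRNA.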 The numbers tell different reagents against one gene apart. Reagent sequences are not shown.

After knock-down of Deptor #1 the results were GFP, % of control 87.1; viability (ATP), % of control 90.5; inactive.
For Deptor #2 the deposit lists GFP, % of control 101; viability (ATP), % of control 61.8; inactive.
After knock-down of Deptor #3, the screen gave GFP, % of control 80; viability (ATP), % of control 34.8; inactive.
Depletion of Sacs #1 resulted in: GFP, % of control 95.8; viability (ATP), % of control 76.2; inactive.
Silencing of Sacs #2 came out at: GFP, % of control 63.2; viability (ATP), % of control 69.6; inactive.
Sacs #3 scored GFP, % of control 69.9; viability (ATP), % of control 92.1; inactive.
For Lenep #1 the deposit lists GFP, % of control 49.6; viability (ATP), % of control 82; inactive.
Against Lenep #2, the values are GFP, % of control 95.9; viability (ATP), % of control 110; inactive.
For Lenep #3 the deposit lists GFP, % of control 96.1; viability (ATP), % of control 88.9; inactive.
Fis1 #1 showed GFP, % of control 68.7; viability (ATP), % of control 62.3; inactive.
Against Fis1 #2, the values are GFP, % of control 96.9; viability (ATP), % of control 109; inactive.
For Fis1 #3, the entry reads GFP, % of control 113; viability (ATP), % of control 91.2; inactive.
Cdh26 #1 showed GFP, % of control 80.1; viability (ATP), % of control 87; inactive.
Cdh26 #2 gave GFP, % of control 53.8; viability (ATP), % of control 90.6; inactive.
Cdh26 #3 gave GFP, % of control 88.9; viability (ATP), % of control 38.5; inactive.
Silencing of Rxrb #1 resulted in: GFP, % of control 12.2; viability (ATP), % of control 77.6; inactive.
Depletion of Rxrb #2 resulted in: GFP, % of control 72.2; viability (ATP), % of control 70.2; inactive.
Rxrb #3 gave GFP, % of control 77.5; viability (ATP), % of control 77.6; inactive.
Zscan21 #1 gave GFP, % of control 137; viability (ATP), % of control 105; active.
After knock-down of Zscan21 #2 the results were GFP, % of control 92.2; viability (ATP), % of control 95.9; inactive.
With knock-down of Sema6a #1 the results were GFP, % of control 84.7; viability (ATP), % of control 48; inactive.
With knock-down of Sema6a #2 the results were GFP, % of control 80; viability (ATP), % of control 85.9; inactive.
Sema6a #3 gave GFP, % of control 66.6; viability (ATP), % of control 93.9; inactive.
Depletion of Vmn1r44 #1 resulted in: GFP, % of control 48; viability (ATP), % of control 37.5; inactive.
Vmn1r44 #2 gave GFP, % of control 88.5; viability (ATP), % of control 56.8; inactive.
For Vmn1r44 #3 the deposit lists GFP, % of control 72; viability (ATP), % of control 95.5; inactive.
With knock-down of Il3 #1, the record shows GFP, % of control 67.7; viability (ATP), % of control 54.2; inactive.
Against Il3 #2, the entry reads GFP, % of control 53.3; viability (ATP), % of control 69.8; inactive.
With knock-down of Il3 #3, the record shows GFP, % of control 65.5; viability (ATP), % of control 64.6; inactive.

Entries listed so far with an active call:
Zscan21 #1 | GFP, % of control: 137; viability (ATP), % of control: 105; outcome: active
